Measured values reported in article PMC10953580.
Results are given in words; binding and its absence hold for the method and conditions named. Some binding calls cover weakened binding; strength is not graded here. Sequences can lack the tags named with a protein.

By UniProt entry, the sequences of proteins in these tests, tags left out. Residues count along the entry.
UniProt P37173, residues 23-567: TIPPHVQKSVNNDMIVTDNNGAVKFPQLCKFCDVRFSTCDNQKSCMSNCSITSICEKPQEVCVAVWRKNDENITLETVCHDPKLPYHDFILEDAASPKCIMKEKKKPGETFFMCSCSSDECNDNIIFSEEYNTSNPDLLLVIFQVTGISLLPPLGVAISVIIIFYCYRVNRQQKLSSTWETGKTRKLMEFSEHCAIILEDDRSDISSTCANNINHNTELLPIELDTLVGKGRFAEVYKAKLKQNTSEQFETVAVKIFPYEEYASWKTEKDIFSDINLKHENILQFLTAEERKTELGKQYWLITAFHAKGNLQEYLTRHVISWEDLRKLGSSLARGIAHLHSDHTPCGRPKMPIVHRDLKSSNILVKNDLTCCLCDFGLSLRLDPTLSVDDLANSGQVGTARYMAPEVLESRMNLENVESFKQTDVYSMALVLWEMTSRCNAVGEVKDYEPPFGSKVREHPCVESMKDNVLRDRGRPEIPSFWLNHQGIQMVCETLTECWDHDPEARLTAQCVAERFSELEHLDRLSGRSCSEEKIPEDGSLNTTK

Target: T1, GST-TSP50 (UniProt Q9UI38)
T1 sequence: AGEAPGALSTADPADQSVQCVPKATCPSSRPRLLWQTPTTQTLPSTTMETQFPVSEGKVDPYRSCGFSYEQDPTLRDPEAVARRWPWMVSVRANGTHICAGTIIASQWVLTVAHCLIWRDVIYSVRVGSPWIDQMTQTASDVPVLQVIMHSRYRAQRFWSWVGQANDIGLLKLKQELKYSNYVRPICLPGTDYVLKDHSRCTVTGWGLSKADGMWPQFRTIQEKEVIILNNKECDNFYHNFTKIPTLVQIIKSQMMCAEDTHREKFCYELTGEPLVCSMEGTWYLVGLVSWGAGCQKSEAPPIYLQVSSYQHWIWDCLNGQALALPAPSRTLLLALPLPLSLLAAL
Assay: pull-down; GST-TSP50 as bait on gel suspension, incubated with Myc-TGFβRII overnight at 4 °C in GST pull-down binding buffer; blot with anti-TGFβRII and anti-GST; both purified

binding: binds
Substance: Myc-TGFβRII used in the GST pull-down (from UniProt P37173 23-567) (receptor)
